Laboratory results from publication PMC7725823.
Results are given in words; binding and its absence hold for the method and conditions named. In cells and extracts the contact can be indirect. A yes stands for co-enrichment or nearness to the bait. Other partners may have been found.

By UniProt entry, the sequences of proteins in these tests, tags left out. Residues count along the entry.
UniProt Q9BXY8: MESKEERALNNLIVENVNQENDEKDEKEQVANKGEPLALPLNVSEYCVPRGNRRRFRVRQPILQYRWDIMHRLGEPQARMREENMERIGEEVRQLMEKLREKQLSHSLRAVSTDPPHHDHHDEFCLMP
UniProt P10809, residues 27-573: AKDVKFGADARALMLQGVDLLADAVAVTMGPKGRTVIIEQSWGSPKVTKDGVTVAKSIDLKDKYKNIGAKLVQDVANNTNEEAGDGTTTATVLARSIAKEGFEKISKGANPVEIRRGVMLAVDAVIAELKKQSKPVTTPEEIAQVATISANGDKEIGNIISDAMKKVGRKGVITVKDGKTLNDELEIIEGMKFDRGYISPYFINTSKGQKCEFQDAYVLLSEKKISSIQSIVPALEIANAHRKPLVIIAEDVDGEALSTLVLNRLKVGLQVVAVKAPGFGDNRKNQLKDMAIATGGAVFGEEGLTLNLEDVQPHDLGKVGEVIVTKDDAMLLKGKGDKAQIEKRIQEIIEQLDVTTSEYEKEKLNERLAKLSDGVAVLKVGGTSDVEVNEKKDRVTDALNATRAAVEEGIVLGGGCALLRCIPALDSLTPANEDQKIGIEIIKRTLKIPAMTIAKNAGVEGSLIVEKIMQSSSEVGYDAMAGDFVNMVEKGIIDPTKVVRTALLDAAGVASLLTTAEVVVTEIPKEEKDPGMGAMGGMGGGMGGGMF
UniProt P63038, residues 27-573: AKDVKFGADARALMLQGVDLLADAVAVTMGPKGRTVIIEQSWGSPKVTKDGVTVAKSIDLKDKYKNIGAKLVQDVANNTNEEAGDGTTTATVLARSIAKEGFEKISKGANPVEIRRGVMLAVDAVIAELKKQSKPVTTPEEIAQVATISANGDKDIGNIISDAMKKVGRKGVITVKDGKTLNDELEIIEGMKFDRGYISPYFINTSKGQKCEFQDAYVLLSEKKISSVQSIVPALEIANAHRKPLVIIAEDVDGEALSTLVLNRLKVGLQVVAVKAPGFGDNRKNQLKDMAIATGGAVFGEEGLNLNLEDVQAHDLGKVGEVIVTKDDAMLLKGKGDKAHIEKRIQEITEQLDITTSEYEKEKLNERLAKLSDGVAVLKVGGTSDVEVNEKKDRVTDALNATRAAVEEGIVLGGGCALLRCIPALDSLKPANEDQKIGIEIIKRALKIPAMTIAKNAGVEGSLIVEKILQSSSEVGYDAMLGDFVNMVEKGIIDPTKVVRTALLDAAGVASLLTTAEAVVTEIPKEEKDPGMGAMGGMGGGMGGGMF

B1: IVD (protein, UniProt P26440 33-426)
chain: HSLLPVDDAINGLSEEQRQLRQTMAKFLQEHLAPKAQEIDRSNEFKNLREFWKQLGNLGVLGITAPVQYGGSGLGYLEHVLVMEEISRASGAVGLSYGAHSNLCINQLVRNGNEAQKEKYLPKLISGEYIGALAMSEPNAGSDVVSMKLKAEKKGNHYILNGNKFWITNGPDADVLIVYAKTDLAAVPASRGITAFIVEKGMPGFSTSKKLDKLGMRGSNTCELIFEDCKIPAANILGHENKGVYVLMSGLDLERLVLAGGPLGLMQAVLDHTIPYLHVREAFGQKIGHFQLMQGKMADMYTRLMACRQYVYNVAKACDEGHCTAKDCAGVILYSAECATQVALDGIQCFGGNGYINDFPMGRFLRDAKLYEIGAGTSEVRRLVIGRAFNADFH
B2: IVD (mouse kidney) (protein, UniProt Q9JHI5 31-424)
chain: HSILPVDDDINGLNEEQKQLRHTISKFLQENLAPKAQEIDQTNDFKNLREFWKQLGSLGVLGITAPVQYGGSGLGYLEHVLVMEEISRASGAVGLSYGAHSNLCVNQIVRNGNEAQKEKYLPKLISGEFIGALAMSEPNAGSDVVSMKLKAEKKGDHYVLNGNKFWITNGPDADILVVYAKTDLTAVPASRGITAFIVEKGMPGFSTSKKLDKLGMRGSNTCELVFEDCKVPAANVLSQESKGVYVLMSGLDLERLVLAGGPLGIMQAVLDHTIPYLHVREAFGQKIGQFQLMQGKMADMYTRLMASRQYVYNVAKACDEGHIIPKDCAGVILYAAECATQVALDGIQCLGGNGYINDFPMGRFLRDAKLYEIGAGTSEVRRLVIGRAFNADFR

target: GST-BEX2 (human) (UniProt Q9BXY8); experiment: affinity purification with mass spectrometry; GST pull-down screen: GST-BEX2 on glutathione magnetic beads incubated with crude nuclear extracts (mouse kidney; HuCCT1 cells) for 12 h at 4 °C with Benzonase; wash 0.15 M NaCl, 0.1% NP-40, 50 mM HEPES pH 7.4; elution with 1.2 M NaCl; SDS-PAGE, silver stain, LC/MS; GST as control; only the target purified

binding, binds:
HSPD1 (from UniProt P10809 27-573)
HSPD1 (mouse kidney) (from UniProt P63038 27-573)
B1
B2
